Reference: PubChem BioAssay AID1259323 (Peter MacCallum Cancer Centre, 2017)
Aim: 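Kinases required for PAR2 signalling to open the TRPV4 channel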 (primary screen). System: human HEK293 cells stably carrying inducible TRPV4. Knock-down reagent: siRNA pool against human genes. Conditions: PAR2 activation; agonist identity and dose not given. Measurement: 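Signal of a calcium dye in live cells following PAR2 activation, plateau and early peak normalised to mock transfection on each plate, mean of duplicate plates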. Direction: TRPV4 plateau calcium, % of mock: higher = stronger sustained TRPV4 calcium entry than mock; PAR2 peak calcium, % of mock: higher = stronger early PAR2 calcium response than mock. Rule for the call: 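Active when sustained TRPV4 plateau calcium falls below 90% of mock while the early PAR2 peak remains above 79% of mock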.
The whole screen tested 715 reagents; shown is a random part of them. 91 of all reagents (13%) count as active. 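Active pools lower the sustained TRPV4 phase but spare the early PAR2 peak; PAR2 agonist and dose are not stated; pools repeat across wells.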 The record does not give: the amount of reagent, the time to read-out.

gene | TRPV4 plateau calcium, % of mock | PAR2 peak calcium, % of mock | call
EPHA10 (GeneID 284656) | 96.6 | 98.6 | inactive
STK31 (GeneID 56164) | 103 | 102 | inactive
PRKAG3 (GeneID 53632) | 91.2 | 90.4 | inactive
MARK3 (GeneID 4140) | 112 | 98.2 | inactive
DYRK1A (GeneID 1859) | 93.2 | 97.1 | inactive
STKLD1 (GeneID 169436) | 91.1 | 94.5 | inactive
DGKI (GeneID 9162) | 100 | 105 | inactive
NME2 (GeneID 4831) | 97.8 | 96.4 | inactive
SKAP1 (GeneID 8631) | 87.5 | 86.4 | active
TRIO (GeneID 7204) | 88.4 | 85.2 | active
PMVK (GeneID 10654) | 95.6 | 97.1 | inactive
PFKL (GeneID 5211) | 102 | 104 | inactive
COMMD3 (GeneID 23412) | 88.1 | 90.9 | active
RPS6KB1 (GeneID 6198) | 129 | 111 | inactive
PRKAB1 (GeneID 5564) | 89.5 | 96.3 | active
TAOK1 (GeneID 57551) | 96.6 | 97.9 | inactive
ULK3 (GeneID 25989) | 95.1 | 101 | inactive
BRDT (GeneID 676) | 109 | 108 | inactive
EPHA4 (GeneID 2043) | 98.5 | 95.2 | inactive
ROR2 (GeneID 4920) | 103 | 82.4 | inactive
CAMK1 (GeneID 8536) | 114 | 105 | inactive
MAP3K12 (GeneID 7786) | 93.7 | 92.7 | inactive
CLK3 (GeneID 1198) | 99 | 100 | inactive
CDK18 (GeneID 5129) | 99.7 | 104 | inactive
PFKP (GeneID 5214) | 108 | 106 | inactive
MAP3K9 (GeneID 4293) | 95.3 | 99.5 | inactive
EPHA5 (GeneID 2044) | 113 | 107 | inactive
CDC42BPB (GeneID 9578) | 104 | 99.7 | inactive
WNK2 (GeneID 65268) | 115 | 104 | inactive
SPHK2 (GeneID 56848) | 107 | 104 | inactive
NUP62 (GeneID 23636) | 89.5 | 80.2 | active
STK16 (GeneID 8576) | 116 | 103 | inactive
MELK (GeneID 9833) | 94.2 | 99 | inactive
PGK1 (GeneID 5230) | 108 | 104 | inactive
